Article PMC8692121
These are yes or no findings as the source states them, for the method shown. Binding seen in cells or lysates may run through a third protein. Some entries that bind do so weakly or less than the wild type.

Protein sequences, listed by entry. Tags and fused reporters are not part of them. Residues count along the entry.
UniProt Q14314, residues 24-439: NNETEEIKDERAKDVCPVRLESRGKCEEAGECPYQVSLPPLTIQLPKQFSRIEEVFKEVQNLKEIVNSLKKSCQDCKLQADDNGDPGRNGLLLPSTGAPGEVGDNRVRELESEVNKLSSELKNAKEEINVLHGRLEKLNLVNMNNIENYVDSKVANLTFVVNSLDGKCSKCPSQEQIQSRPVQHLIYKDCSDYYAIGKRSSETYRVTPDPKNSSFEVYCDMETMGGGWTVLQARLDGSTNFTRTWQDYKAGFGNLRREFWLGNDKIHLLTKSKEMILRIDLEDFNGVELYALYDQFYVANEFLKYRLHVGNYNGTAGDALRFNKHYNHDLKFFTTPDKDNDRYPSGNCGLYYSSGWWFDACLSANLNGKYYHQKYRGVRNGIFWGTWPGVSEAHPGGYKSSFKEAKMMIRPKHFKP
UniProt O43914, residues 22-113: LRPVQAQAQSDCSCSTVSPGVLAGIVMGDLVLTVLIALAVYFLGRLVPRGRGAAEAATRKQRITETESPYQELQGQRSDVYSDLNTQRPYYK

Target: Human fibroleukin 2 (Fgl2) (human) (UniProt Q14314)
Assay: co-IP; CSCC cells; anti-Fgl2 antibody used for IP, immunoprecipitates examined by Western blots

With “Tyrobp (DNAX-activating protein of 12 kDa, DAP12) (from UniProt O43914 22-113)” the binding was “binds”.
